From US20050256159A1
Structures were worked out from names or drawings and are uncertain.

The chains behind the UniProt entries cited, without tags or fusion partners.
UniProt P28845, whole entry: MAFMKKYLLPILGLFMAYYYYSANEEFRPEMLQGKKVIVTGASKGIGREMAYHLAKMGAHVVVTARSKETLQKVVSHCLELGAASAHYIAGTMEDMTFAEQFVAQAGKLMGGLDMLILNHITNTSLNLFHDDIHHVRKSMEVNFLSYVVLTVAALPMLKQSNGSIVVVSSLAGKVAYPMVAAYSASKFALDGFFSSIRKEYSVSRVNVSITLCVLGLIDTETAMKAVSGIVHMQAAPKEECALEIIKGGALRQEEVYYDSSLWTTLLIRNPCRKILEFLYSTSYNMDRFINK

What follows are molecules tested against human 11βHSD1 (Homo sapiens, UniProt P28845) (assay: HeLa GRE4-βGal/11βHSD1 cell reporter assay (β-galactosidase production)). Settings: HeLa GRE4-βGal/11βHSD1 cells, cortisone 1 μM, overnight incubation, β-galactosidase readout.
Description: HeLa cells (human cervical carcinoma derived cells) were stably transfected with a construct containing four copies of the glucocorticoid response element (GRE) linked to a beta-galactosidase reporter gene (3 kb lac Z gene derived from pSV-B-galactosidase). These cells were then further stably transfected with a construct containing full-length human 11βHSD1 enzyme (in pCMVHyg) to create GRE4-βGal/11βHSD1 cells. The principal of the assay is as follows. Cortisone is freely taken up by the cells and is converted to cortisol by 11βHSD1 oxo-reductase activity and cortisol (but not cortisone) binds to and activates the glucocorticoid receptor. Activated glucocorticoid receptor then binds to the GRE and initiates transcription and translation of β-galactosidase. Enzyme activity can then be assayed with high sensitivity by colourimetric assay.
Cells were routinely cultured in DMEM (Invitrogen, Paisley, Renfrewshire, UK) containing 10% foetal calf serum (LabTech), 1% glutamine (Invitrogen), 1% penicillin & streptomycin (Invitrogen), 0.5 mg/ml G418 (Invitrogen) & 0.5mg/ml hygromycin (Boehringer). Assay media was phenol red free-DMEM containing 1% glutarine, 1% penicillin & streptomycin.
Compounds (1 mM) to be tested were dissolved in dimethyl sulphoxide (DMSO) and serially diluted into assay media containing 10% DMSO. […]
A cocktail (25 μl) consisting of 10× Z-buffer (600 mM Na2HPO4, 400 mM NaH2PO4.2H2O, 100 mM KCl, 10 mM MgSO4.7H2O, 500 mM β-mercaptoethanol, pH 7.0) SDS (0.2%), chlorophenol red-β-D-galactopyranoside (5 mM, Roche Diagnostics) was added per well and plates incubated at 37° C. for 3-4 hours. β-Galactosidase activity was indicated by a yellow to red colour change (absorbance at 570 nm) measured using a Tecan Spectrafluor Ultra.
The calculation of median inhibitory concentration (IC50) values for the inhibitors was performed using Origin 6.0 (Microcal Software, Northampton Mass. USA). Dose response curves for each inhibitor were plotted as OD units at each inhibitor concentration with relation to a maximum signal (cortisone, no compound) and IC50 values calculated. […]
`COc1ccc(C(=O)C2CCN(C(=O)c3ccc(F)cc3)CC2)cc1` showed an IC50 of 254 nM. `O=C(c1ccc(OC(F)(F)F)cc1)C1CCN(C(=O)c2ccc(F)cc2)CC1` was tested, and the IC50 was 50 nM. Work on `COc1ccc(C(=O)C2CCN(C(=O)c3ccccc3OC(F)(F)F)CC2)cc1` yielded an IC50 of 97 nM.
